Reference: paper PMC10454243, “Anticancer Study of a Novel Pan-HDAC Inhibitor MPT0G236 in Colorectal Cancer Cells” (International Journal of Molecular Sciences, 2023)

Legend:
[1] = test system: human umbilical vein endothelial cells (HUVECs); experiment: MTT cell viability assay, HUVEC; assay type: cell-based; details: 48 h, read-out: IC50 cell viability
[2] = test system: HCT-116 human colorectal cancer cells; experiment: MTT cell viability assay, HCT-116; assay type: cell-based; details: HCT-116, 48 h, read-out: IC50 cell viability

`O=C(CCCCCCC(=O)Nc1ccccc1)NO` [SAHA, Suberoylanilide hydroxamic acid, reference compound] gave an IC50 [1] of 16.6 µM and an IC50 [2] of 1.28 µM.
